{"source": "patent US9604932B2", "about": "(priority 2013, dated 2017)", "origin": "cited, not measured here", "conditions": "inclusion complex with hydroxypropylcyclodextrin; cited from earlier work", "note": "At least one structure is not confirmed: it was looked up by name or label, or the drawing left a doubt."}
{"smiles": "CC1(C)CC(CO[N+](=O)[O-])C(C)(C)N1[O]", "note": "(stereo not shown) [R-100, 3-nitratomethyl-2,2,5,5-tetramethylpyrrolidinyloxy, reference compound]", "values": [{"measurement": "Ratio HPCD:R-100 needed to fully dissolve the compound", "result": "> 20:1"}]}
